According to the supplement of paper PMC6411743:
± gives the standard deviation of the averaged measurements. This is a selection; strong and weak results do not stand in their true shares.

Key:
Assay in all cases: NP40-soluble protein abundance relative to vehicle (solubility fold change) (ratio); higher = more soluble protein in presence of ATP
CENPB = target: T1, CENPB (UniProt P07199)
T1 sequence (whole entry): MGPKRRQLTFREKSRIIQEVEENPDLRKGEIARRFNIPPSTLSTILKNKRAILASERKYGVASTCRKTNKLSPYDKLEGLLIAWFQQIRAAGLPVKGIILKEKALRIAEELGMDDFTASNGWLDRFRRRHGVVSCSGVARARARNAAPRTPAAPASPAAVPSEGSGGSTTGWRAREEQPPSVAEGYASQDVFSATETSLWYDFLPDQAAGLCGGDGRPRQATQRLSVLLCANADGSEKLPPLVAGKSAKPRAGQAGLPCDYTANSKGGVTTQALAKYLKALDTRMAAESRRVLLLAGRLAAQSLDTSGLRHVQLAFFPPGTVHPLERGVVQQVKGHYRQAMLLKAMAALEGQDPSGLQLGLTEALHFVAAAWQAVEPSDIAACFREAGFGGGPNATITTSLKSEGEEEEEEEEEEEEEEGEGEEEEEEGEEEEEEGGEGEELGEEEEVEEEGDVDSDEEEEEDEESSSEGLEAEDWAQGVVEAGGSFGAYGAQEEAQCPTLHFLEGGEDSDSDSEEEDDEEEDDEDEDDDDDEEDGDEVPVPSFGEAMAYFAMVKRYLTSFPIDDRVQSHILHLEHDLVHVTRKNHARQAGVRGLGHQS
Outline: (§1)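 Data come from three independent experiments in which Dounce-homogenised Jurkat crude lysate was treated at eight concentrations from 0.1 to 10 mM. Treatment ran 10 min at room temperature and then 3 min at 37 °C, after which 0.8% NP40 and benzonase were added for 60 min at 4 °C before ultracentrifugation. The supernatant underwent TMT labelling and LC-MS/MS, and vsn-normalised intensities were expressed as fold change against the detergent-processed vehicle in each replicate.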

CSTB = target: T2, CSTB (UniProt P04080)
T2 sequence (whole entry): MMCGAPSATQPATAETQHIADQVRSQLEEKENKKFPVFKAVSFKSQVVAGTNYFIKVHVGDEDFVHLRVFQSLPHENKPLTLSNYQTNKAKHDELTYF
Outline: as §1

CYBA = target: T3, CYBA (UniProt P13498)
T3 sequence (whole entry): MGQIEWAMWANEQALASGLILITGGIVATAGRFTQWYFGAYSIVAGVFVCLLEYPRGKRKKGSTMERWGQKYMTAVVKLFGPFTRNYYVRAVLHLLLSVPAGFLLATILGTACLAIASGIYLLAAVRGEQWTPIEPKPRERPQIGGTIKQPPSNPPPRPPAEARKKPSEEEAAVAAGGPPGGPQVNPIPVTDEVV
Outline: as §1

GLA = target: T4, GLA (UniProt P06280)
T4 sequence (whole entry): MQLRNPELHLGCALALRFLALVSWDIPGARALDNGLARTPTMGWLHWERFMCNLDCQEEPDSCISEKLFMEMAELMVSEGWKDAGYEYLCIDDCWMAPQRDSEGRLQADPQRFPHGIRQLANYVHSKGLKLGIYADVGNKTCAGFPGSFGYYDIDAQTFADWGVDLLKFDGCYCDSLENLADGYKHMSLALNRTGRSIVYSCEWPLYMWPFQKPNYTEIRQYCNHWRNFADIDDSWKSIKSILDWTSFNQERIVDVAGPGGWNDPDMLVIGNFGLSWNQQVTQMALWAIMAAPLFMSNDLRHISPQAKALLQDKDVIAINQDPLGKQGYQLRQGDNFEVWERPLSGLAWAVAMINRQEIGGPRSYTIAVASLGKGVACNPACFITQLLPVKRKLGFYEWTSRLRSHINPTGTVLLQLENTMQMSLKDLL
Outline: as §1

LTA4H = target: T5, LTA4H (UniProt P09960)
T5 sequence (whole entry): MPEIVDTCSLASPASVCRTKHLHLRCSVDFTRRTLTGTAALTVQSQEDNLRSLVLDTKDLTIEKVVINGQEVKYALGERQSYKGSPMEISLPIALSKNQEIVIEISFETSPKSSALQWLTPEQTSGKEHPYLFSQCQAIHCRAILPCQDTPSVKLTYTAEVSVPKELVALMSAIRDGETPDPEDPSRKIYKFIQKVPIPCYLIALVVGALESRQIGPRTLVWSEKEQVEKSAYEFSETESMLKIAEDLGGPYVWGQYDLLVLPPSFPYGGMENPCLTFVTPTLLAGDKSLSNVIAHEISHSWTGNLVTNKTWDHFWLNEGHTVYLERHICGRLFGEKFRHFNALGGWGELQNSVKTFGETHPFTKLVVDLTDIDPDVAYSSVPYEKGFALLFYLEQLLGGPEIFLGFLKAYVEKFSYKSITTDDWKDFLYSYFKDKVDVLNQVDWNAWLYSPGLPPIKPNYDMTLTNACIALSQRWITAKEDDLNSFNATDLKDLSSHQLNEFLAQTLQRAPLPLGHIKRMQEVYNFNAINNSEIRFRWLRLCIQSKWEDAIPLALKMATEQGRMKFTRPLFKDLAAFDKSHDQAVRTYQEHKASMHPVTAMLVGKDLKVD
Outline: as §1

PTTG1 = target: T6, PTTG1 (UniProt O95997)
T6 sequence (whole entry): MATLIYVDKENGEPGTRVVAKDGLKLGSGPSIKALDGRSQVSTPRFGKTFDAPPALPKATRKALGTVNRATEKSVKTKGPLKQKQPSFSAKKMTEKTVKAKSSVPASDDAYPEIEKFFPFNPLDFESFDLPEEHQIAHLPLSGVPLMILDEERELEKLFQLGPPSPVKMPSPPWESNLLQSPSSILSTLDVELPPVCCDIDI
Outline: as §1

[1] = target: T7, UniProt P02545 and related entries
T7 sequence (whole entry): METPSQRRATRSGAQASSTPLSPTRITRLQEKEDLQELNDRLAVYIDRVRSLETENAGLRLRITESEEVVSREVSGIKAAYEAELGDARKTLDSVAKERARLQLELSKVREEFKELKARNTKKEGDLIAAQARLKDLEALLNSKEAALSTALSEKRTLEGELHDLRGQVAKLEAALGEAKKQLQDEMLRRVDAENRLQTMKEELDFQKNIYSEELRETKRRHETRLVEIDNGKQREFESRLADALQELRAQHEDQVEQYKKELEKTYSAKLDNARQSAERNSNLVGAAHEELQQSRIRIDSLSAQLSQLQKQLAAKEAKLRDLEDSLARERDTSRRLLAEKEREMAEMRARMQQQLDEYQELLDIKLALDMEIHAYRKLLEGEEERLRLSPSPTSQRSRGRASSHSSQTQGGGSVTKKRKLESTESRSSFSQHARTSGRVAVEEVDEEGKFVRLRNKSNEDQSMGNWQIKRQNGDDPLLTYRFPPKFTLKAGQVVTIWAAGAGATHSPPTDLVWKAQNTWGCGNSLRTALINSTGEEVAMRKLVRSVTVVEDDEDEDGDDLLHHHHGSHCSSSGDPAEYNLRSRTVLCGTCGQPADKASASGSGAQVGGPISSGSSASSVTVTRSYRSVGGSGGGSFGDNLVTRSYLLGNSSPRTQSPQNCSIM
Outline: as §1

[2] = target: T8, UniProt P04083 and related entries
T8 sequence (whole entry): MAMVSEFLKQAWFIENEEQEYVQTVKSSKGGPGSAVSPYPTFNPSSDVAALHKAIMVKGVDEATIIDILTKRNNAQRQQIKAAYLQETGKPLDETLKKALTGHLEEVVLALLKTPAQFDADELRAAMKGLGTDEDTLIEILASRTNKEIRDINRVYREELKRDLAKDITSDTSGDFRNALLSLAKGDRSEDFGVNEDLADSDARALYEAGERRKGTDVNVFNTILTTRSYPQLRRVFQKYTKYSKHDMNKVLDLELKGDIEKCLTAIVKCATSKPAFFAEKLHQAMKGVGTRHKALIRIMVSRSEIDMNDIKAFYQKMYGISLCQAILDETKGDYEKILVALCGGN
Outline: as §1

UniProt P10914 = target: T9, UniProt P10914
T9 sequence (whole entry): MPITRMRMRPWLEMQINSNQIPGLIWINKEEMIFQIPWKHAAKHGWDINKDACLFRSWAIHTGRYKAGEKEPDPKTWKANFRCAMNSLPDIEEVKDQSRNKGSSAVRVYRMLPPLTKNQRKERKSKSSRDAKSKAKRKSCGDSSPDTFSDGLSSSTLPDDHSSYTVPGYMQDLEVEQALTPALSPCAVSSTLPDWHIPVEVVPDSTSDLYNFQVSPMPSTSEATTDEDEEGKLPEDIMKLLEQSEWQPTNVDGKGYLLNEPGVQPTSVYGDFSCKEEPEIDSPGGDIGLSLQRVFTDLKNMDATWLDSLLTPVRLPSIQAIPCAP
Outline: as §1

Nc1ncnc2c1ncn2[C@@H]1O[C@H](COP(=O)(O)OP(=O)(O)OP(=O)(O)O)[C@@H](O)[C@H]1O [adenosine triphosphate]
NP40-soluble protein abundance (CENPB; concentration: 1mM): 1.07 ± 0.1 | NP40-soluble protein abundance (CENPB; concentration: 2mM): 1.1 ± 0.058 | NP40-soluble protein abundance (CENPB; concentration: 4mM): 1.09 ± 0.07 | NP40-soluble protein abundance (CENPB; concentration: 6mM): 1.1 ± 0.089 | NP40-soluble protein abundance (CENPB; concentration: 8mM): 1.06 ± 0.083 | NP40-soluble protein abundance (CENPB; concentration: 10mM): 1.05 ± 0.027 | NP40-soluble protein abundance (CSTB; concentration: 1mM): 0.933 ± 0.028 | NP40-soluble protein abundance (CSTB; concentration: 2mM): 0.9112 ± 0.0042 | NP40-soluble protein abundance (CSTB; concentration: 4mM): 0.887 ± 0.037 | NP40-soluble protein abundance (CSTB; concentration: 6mM): 0.889 ± 0.023 | NP40-soluble protein abundance (CSTB; concentration: 8mM): 0.901 ± 0.015 | NP40-soluble protein abundance (CSTB; concentration: 10mM): 0.877 ± 0.013 | NP40-soluble protein abundance (CYBA; concentration: 1mM): 1.02 ± 0.058 | NP40-soluble protein abundance (CYBA; concentration: 2mM): 0.992 ± 0.07 | NP40-soluble protein abundance (CYBA; concentration: 4mM): 0.965 ± 0.06 | NP40-soluble protein abundance (CYBA; concentration: 6mM): 1.03 ± 0.075 | NP40-soluble protein abundance (CYBA; concentration: 8mM): 0.942 ± 0.038 | NP40-soluble protein abundance (CYBA; concentration: 10mM): 0.944 ± 0.037 | NP40-soluble protein abundance (GLA; concentration: 1mM): 0.92 ± 0.01 | NP40-soluble protein abundance (GLA; concentration: 2mM): 0.968 ± 0.044 | NP40-soluble protein abundance (GLA; concentration: 4mM): 0.95 ± 0.022 | NP40-soluble protein abundance (GLA; concentration: 6mM): 0.936 ± 0.035 | NP40-soluble protein abundance (GLA; concentration: 8mM): 0.9165 ± 0.006 | NP40-soluble protein abundance (GLA; concentration: 10mM): 0.96 ± 0.061 | NP40-soluble protein abundance (LTA4H; concentration: 1mM): 0.992 ± 0.093 | NP40-soluble protein abundance (LTA4H; concentration: 2mM): 0.983 ± 0.079 | NP40-soluble protein abundance (LTA4H; concentration: 4mM): 0.949 ± 0.064 | NP40-soluble protein abundance (LTA4H; concentration: 6mM): 0.924 ± 0.13 | NP40-soluble protein abundance (LTA4H; concentration: 8mM): 0.957 ± 0.036 | NP40-soluble protein abundance (LTA4H; concentration: 10mM): 0.952 ± 0.063 | NP40-soluble protein abundance (PTTG1; concentration: 1mM): 0.957 ± 0.086 | NP40-soluble protein abundance (PTTG1; concentration: 2mM): 0.883 ± 0.034 | NP40-soluble protein abundance (PTTG1; concentration: 4mM): 0.888 ± 0.021 | NP40-soluble protein abundance (PTTG1; concentration: 6mM): 0.943 ± 0.068 | NP40-soluble protein abundance (PTTG1; concentration: 8mM): 0.855 ± 0.052 | NP40-soluble protein abundance (PTTG1; concentration: 10mM): 0.873 ± 0.048 | NP40-soluble protein abundance ([1]; concentration: 1mM): 1.13 ± 0.13 | NP40-soluble protein abundance ([1]; concentration: 2mM): 1.11 ± 0.055 | NP40-soluble protein abundance ([1]; concentration: 4mM): 1.15 ± 0.16 | NP40-soluble protein abundance ([1]; concentration: 6mM): 1.16 ± 0.22 | NP40-soluble protein abundance ([1]; concentration: 8mM): 1.09 ± 0.09 | NP40-soluble protein abundance ([1]; concentration: 10mM): 1.2 ± 0.15 | NP40-soluble protein abundance ([2]; concentration: 1mM): 0.913 ± 0.042 | NP40-soluble protein abundance ([2]; concentration: 2mM): 0.928 ± 0.015 | NP40-soluble protein abundance ([2]; concentration: 4mM): 0.923 ± 0.019 | NP40-soluble protein abundance ([2]; concentration: 6mM): 0.9188 ± 0.0059 | NP40-soluble protein abundance ([2]; concentration: 8mM): 0.912 ± 0.019 | NP40-soluble protein abundance ([2]; concentration: 10mM): 0.868 ± 0.068 | NP40-soluble protein abundance (UniProt P10914; concentration: 1mM): 0.831 ± 0.19 | NP40-soluble protein abundance (UniProt P10914; concentration: 2mM): 0.972 ± 0.12 | NP40-soluble protein abundance (UniProt P10914; concentration: 4mM): 0.886 ± 0.043 | NP40-soluble protein abundance (UniProt P10914; concentration: 6mM): 0.869 ± 0.097 | NP40-soluble protein abundance (UniProt P10914; concentration: 8mM): 0.913 ± 0.053 | NP40-soluble protein abundance (UniProt P10914; concentration: 10mM): 0.921 ± 0.13
